The source of these data is the supplement of paper PMC11637464.

SMILES strings stand for the structures. Counter-ions that a name gives are not always drawn. The list shows a part of the results. Most values come without repeats; read them as rough.

The subject of the experiment is primary mouse Muller glia with Ascl1 overexpression. Put plainly: progenitor-like (ProL) cell count fold change vs Ascl1-only control (log2 fold change); higher = more progenitor-like cells. Here is the method: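 Primary P11 mouse Muller glia carrying dox-inducible Ascl1 were treated with Tocriscreen Stem Cell Library compounds at 0.1, 1 or 10 uM together with doxycycline for 5 days, then profiled by sci-Plex hashing and sci-RNA-seq2. Cells were annotated by marker genes and cell-type counts per well were size-factor adjusted. Read-outs are the log2 fold change of Neuronal (NeuPre + bipolar) and ProL cell counts versus the Ascl1-only control wells of the same collection day, plus the raw number of recovered cells per well. There is one well per dose, and wells with fewer than 20 cells were discarded.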

Turning to `Nc1ncnc2c1nc(Br)n2[C@@H]1O[C@@H]2COP(=O)(O)O[C@H]2[C@H]1O` [8-Bromo-cAMP, sodium salt] (collection day: 1), the “progenitor-like (log2)” value turned out to be 0.399 (0.1 µM), 0.495 (1 µM) and 0.863 (10 µM).
As for `O=c1[nH]c(=O)n([C@H]2C[C@H](O)[C@@H](CO)O2)cc1Br` (collection day: 2), the “progenitor-like (log2)” value (0.1 µM) was determined as 0.341, the “progenitor-like (log2)” value (1 µM) came to 0.29 and the “progenitor-like (log2)” value (10 µM) was -0.244.
Take `Nc1nc(N)c2nc(-c3cccc(Cl)c3)c(N)nc2n1` [Epiblastin A] (collection day: 2): the “progenitor-like (log2)” value amounted to 0.0317 (0.1 µM), 0.236 (1 µM) and 0.123 (10 µM).
For `Nc1ncn([C@H]2C[C@H](O)[C@@H](CO)O2)c(=O)n1` [Decitabine] (collection day: 1), in that order: 0.541, 0.241 and 0.541.
For `COc1ccn2ncc(-c3nc4[nH]nc(NC(=O)c5ccc(F)cc5)c4cc3F)c2c1` (collection day: 2) the same measures were 0.209, 0.462 and 0.617.
Regarding `CCCC(CCC)C(=O)O` [Valproic acid, sodium salt] (collection day: 1), the “progenitor-like (log2)” value runs as follows: (0.1 µM) 0.541; (1 µM) 0.184; (10 µM) 0.541.
On to `O=c1n(CCCN2CCN(c3cccc(Cl)c3)CC2)nc2ccccn12` [Trazodone hydrochloride] (collection day: 2), for which the “progenitor-like (log2)” value (0.1 µM) was found to be 0, the “progenitor-like (log2)” value (1 µM) was 0.123 and the “progenitor-like (log2)” value (10 µM) turned out to be 0.181.
Take `O=C(NNc1ccccc1)c1ccncc1` [PluriSln 1] (collection day: 2): the “progenitor-like (log2)” value (0.1 µM) stood at 0.366, the “progenitor-like (log2)” value (1 µM) was 0.152 and the “progenitor-like (log2)” value (10 µM) was 0.236.
For the compound `O=C1Cc2c([nH]c3ccc(Br)cc23)-c2ccccc2N1` [Kenpaullone] (collection day: 1), the “progenitor-like (log2)” value by setting is: (0.1 µM) 0.348; (1 µM) 0.495.
Consider `O=C(O)C(Cc1c[nH]c2ccccc12)N1C(=O)c2ccccc2C1=O` (centres undefined) (collection day: 2), for which the “progenitor-like (log2)” value was 0.0317 (0.1 µM), -0.0656 (1 µM) and 0.181 (10 µM).
`CC(ONC(=O)c1cc(C(F)(F)F)cc(C(F)(F)F)c1)C(=O)Nc1ccc(Cl)cc1` (centres undefined) (collection day: 2): the “progenitor-like (log2)” value is, setting by setting: (0.1 µM) -0.363; (1 µM) 0.0317.
For `C[S+]([O-])c1ccc(-c2nc(-c3ccc(F)cc3)c(-c3ccncc3)[nH]2)cc1` (centres undefined) (collection day: 1), the “progenitor-like (log2)” value reads like this: (0.1 µM) 0.585; (1 µM) 1; (10 µM) 0.67.
Consider `OCCNC1CCCc2c1[nH]c1ccc(-c3ccccc3)cc21` (centres undefined) (collection day: 2), for which the “progenitor-like (log2)” value is, setting by setting: (0.1 µM) 0.123; (1 µM) 0.
Regarding `Cc1ccccc1NC(=O)Nc1ccc(CC(=O)N(C)[C@@H](CC(C)C)C(=O)NCC[C@H](NC(=O)[C@@H]2CCCN2S(=O)(=O)c2cc(Cl)cc(Cl)c2)C(=O)O)cc1` (collection day: 2), the “progenitor-like (log2)” value is, setting by setting: (0.1 µM) 0.0931; (1 µM) 0; (10 µM) -0.134.
